The target of assay [1] is T1, ProtA-tagged CtNdc1 (Chaetomium thermophilum Ndc1), expressed in S. cerevisiae (Chaetomium thermophilum) (UniProt G0S235).
T1 sequence: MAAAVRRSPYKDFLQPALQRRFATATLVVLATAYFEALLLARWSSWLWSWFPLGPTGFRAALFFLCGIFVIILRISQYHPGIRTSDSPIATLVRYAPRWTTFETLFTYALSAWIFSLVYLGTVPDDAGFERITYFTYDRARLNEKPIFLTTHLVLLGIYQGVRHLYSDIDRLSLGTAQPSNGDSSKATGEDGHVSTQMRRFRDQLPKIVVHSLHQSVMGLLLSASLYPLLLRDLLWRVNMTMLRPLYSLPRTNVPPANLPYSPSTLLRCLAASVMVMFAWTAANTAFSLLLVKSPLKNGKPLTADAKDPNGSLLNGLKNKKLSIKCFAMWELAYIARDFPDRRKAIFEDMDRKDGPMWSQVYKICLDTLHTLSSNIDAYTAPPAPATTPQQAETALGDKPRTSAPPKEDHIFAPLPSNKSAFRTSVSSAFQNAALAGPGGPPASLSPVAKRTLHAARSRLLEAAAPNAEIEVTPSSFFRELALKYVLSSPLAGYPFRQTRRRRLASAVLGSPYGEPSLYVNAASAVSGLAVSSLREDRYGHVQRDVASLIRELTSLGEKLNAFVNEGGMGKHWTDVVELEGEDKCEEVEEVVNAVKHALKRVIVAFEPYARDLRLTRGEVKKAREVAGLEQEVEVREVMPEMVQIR
Briefly: pull-down.

Chains of the proteins cited; added tags and fusions are not shown.
UniProt G0SER9: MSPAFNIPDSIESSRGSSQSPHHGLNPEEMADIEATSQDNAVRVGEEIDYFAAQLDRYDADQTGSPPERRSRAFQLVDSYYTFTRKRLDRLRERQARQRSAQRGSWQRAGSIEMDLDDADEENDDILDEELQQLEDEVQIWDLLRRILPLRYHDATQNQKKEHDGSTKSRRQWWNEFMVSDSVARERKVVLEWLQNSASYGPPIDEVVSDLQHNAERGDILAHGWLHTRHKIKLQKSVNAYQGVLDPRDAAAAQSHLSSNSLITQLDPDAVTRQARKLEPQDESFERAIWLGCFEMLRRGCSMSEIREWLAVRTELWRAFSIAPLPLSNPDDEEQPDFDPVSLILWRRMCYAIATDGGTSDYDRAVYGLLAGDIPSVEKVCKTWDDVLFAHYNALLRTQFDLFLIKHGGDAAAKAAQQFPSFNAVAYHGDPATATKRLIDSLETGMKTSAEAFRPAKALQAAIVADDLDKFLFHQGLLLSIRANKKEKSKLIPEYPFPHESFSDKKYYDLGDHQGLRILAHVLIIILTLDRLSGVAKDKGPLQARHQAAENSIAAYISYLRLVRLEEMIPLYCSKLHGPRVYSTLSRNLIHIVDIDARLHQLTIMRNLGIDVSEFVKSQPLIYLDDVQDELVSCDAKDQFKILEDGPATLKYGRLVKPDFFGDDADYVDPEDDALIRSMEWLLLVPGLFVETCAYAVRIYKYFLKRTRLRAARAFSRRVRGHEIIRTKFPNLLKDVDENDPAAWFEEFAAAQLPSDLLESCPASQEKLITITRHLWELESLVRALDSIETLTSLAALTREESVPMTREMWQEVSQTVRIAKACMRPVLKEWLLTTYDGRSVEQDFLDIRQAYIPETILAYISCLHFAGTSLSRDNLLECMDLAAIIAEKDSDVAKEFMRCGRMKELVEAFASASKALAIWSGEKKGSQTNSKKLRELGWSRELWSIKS

Assay [2] concerns the target T2, ProtA-tagged CtPom152 (Chaetomium thermophilum Pom152), expressed in S. cerevisiae (Chaetomium thermophilum) (UniProt G0SB44).
T2 sequence: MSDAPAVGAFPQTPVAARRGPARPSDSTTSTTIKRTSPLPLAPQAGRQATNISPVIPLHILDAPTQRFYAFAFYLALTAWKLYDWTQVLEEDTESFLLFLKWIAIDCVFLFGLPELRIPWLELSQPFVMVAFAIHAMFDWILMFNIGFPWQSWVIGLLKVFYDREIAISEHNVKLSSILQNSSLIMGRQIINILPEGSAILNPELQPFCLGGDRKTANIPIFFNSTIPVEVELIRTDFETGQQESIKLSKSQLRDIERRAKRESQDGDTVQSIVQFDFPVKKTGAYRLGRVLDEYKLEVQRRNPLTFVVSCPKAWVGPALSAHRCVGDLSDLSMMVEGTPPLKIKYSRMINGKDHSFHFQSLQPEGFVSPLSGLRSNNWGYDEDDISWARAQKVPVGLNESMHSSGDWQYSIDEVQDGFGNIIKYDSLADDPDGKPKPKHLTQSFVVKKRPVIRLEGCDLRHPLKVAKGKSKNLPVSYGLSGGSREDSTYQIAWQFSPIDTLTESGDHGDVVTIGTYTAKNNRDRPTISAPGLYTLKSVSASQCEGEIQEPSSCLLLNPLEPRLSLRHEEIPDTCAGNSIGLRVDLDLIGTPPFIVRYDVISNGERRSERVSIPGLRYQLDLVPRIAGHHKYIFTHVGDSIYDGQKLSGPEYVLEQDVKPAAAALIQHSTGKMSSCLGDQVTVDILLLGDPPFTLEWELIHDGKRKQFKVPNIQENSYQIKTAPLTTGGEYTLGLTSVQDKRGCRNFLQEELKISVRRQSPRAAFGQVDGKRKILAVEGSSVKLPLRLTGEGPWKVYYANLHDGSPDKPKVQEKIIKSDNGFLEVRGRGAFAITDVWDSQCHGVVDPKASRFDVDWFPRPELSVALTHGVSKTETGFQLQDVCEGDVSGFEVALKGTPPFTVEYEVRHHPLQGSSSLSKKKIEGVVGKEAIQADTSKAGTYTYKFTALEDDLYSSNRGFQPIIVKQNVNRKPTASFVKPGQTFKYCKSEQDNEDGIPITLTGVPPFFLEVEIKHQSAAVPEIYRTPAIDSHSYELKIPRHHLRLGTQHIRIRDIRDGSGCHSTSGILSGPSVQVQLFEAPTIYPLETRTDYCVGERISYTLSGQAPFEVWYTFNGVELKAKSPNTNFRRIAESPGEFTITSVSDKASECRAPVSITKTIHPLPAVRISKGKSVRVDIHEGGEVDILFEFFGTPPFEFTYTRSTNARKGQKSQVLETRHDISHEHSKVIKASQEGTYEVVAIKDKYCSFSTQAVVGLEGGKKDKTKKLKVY
Briefly: pull-down.

Assay [3] has as its target T3, CtNdc1 (1-308), N-terminal transmembrane part, Alexa Fluor 488-labeled, reconstituted into GUVs (Chaetomium thermophilum) (UniProt G0S235).
T3 sequence (chain, Alexa Fluor 488 (succinimidyl ester labelling)): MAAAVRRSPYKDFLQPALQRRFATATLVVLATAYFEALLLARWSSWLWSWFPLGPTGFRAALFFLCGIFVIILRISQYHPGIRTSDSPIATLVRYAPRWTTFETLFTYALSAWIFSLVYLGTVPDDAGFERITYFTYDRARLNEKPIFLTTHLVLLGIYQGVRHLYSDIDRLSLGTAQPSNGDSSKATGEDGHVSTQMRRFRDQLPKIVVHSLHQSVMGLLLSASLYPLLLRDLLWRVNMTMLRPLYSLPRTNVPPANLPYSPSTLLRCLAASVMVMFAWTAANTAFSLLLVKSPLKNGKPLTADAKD
Briefly: recruitment to GUVs.

These are yes or no findings as the source states them, for the method shown. Some entries that bind do so weakly or less than the wild type. For some assays here: Tags and fused reporters may be left off the sequences shown.

Consider “CtNup84 (Chaetomium thermophilum Nup84), full length (from UniProt G0SER9 1-948)”, for which the binding entry in assay [1] is listed as “no binding”. As to “CtNup120βM, β-propeller domain of CtNup120 with an α-helical extension (from UniProt G0S0E7 1-832) (domain or fragment)”, the binding entry in assay [1] is given as “binds”.

B1: CtNup133 (Chaetomium thermophilum Nup133), full length (protein, UniProt G0S9A7 1-1364)
chain: MFSSTLHEDGPATRTRSSRRRQRPVASDSSLQTQPKAKRQRVPLTESNTAPTPTPADADAPPEMFEVKPDPVLAKRERDGIGIENIENLGPRRELSLRSKKPKSGERTSKGDGSIILTTNNAFTVSKLPALPDRLRAEPTSRQHGAIFSSGYALALTHTHAFVWPYTATTASPETFTFALPYPSKHASDPLPLGALVPPSASSDDPGLVVVMPVSGRVVYWESISSAATLDFIRQQRTGIEDAISGMYSSEHITQLVSAESAGFVLVFSSGRIAYMSVRDPHGRPGITVQYLRSPFGGASLGFLSTLRHALSGSSRGDIAAAHANHGPRVGERVVIAASSKGRLQAWKIHRGGHHEPVAEADVRERLVEAVNEADAKTQAFPSESFEVLDFAFVPRGLEPKYVNASRLSEALTHEEDSLQHMLLLVGFSRGHQARYSLVETVLAPEGARIGTVRPITSYTSPVRPGALEKPRLYLPRPALVAFVVFDRAVVVASMVAPPDSPDSQLQEDSHILPPTFEDVVDFRDDDTLQVVGSGSEEPGAGTSSEDVRPHRHKTKNPTAVLLLPGVGIVRVAITDIERFASDAPPRVTAKSKLEQAVFFGIKSDNPLVFQGRRALPFSDREVCDAAVELSHEIVNSKTPFIPSVPASLEGNMKSRSAYLDALITFLNACKVNMDERTRWMLLYDAEKMAVATWIWQKHEQFLAERPRADKKTLISEAAVFINENQKTELNVAAGQVDPVRHWFIHDIFRLDIFVAWAYQIIKYHYTQKLSDEPGLNRLVWEAVTINNGALLEARQFRLDKAAQYGVDPAVVPTGNGLPEPWTSTYFITNNLKRLTEFCHQWLAKHDAQPSADPRFDARLLDTVRERLPSLTSQYFTSLSEYITWAASSTDPETQDRCRAYQAAYAEDVYKKIVKLKEFDLWEEAVELAREFEAFDALADVVVGQILMLEAAAADPTTTESKAQENAALAQVKKQRLGRLMEEFGEGFASRAYEVLLDAAGVQAVLEFAFDRKGFITKWLRGKPELARISWVNEVLREGDVGGAAETLLGLGMSREVQVWNKKVELSLGKLALLAEGGGSDDEAGKGEVGGTIKKIDAELEVVKVQDLLYQWILASVHEAVDSSAEVELAVKQFGGLIPRRQKALLQIFEDGIARLLKHEVLDPLTLIDLLTLSSLGPGHYEGMGDQFFLALKVAHYAALENAEEVRRLIWRRCLVRDDWRQVNETNLKGDEEALEAVGETAAYRTLFACFDEESSTPTFRPHHTLKPSDCLGVYTEPEQLDSRFAAMDDSFRGKLVEAMRAEDRLLRGFVEKAQLDEWWRATRETAERMVGVAAQKGHRRVNSGSVGNGGVNGLSLNGRVKMY
modifications: Alexa Fluor 546 label in the GUV assay
For the molecule B1, the binding entry in assay [2] is given as “no binding”.

B2: CtNup120 (Chaetomium thermophilum Nup120), full length (protein, UniProt G0S0E7 1-1262)
chain: MAFDNFEILYKETRLNLEPASPSSVVQLRVAPTNAYGRSSLSSSSSSRPASATADDEKGYRTKNLATASSIYYRKHHSSPRGFLWRVLDNNTVLSIRVADVCRQEKVADAPLILNLRFASPLRPACVGFADHEDHDALFVYAIDQSNQLWSIILRPDHFRKRSATEGGLGDASRVYSPPGFGFKHPHRLAVVSPDQLIVTMHDGGILKFDRNKNHESHGSPWRESIYNVAGWGQSLRGLVPFQRNPTVRYEKINMELTAAASTAVTTMGHAETAFLFTICLDHRMRVWDVRTGQILYTGDILNNTKRDPQEVGKWTVDPSQNNLIRILDNGRGQCLVVTYSPVGAGEFKFWKVKANDQGSIHVTDCFPDARLMSPNPTSLDVWTLADFAIAQQPDGPELWALWKNNTSYRVNRLQIIPRNATAPFADGWKAVCVESPGPTPRASGSWNPTDSTEKWLDLIFSPGRFSKSTLETALAMYEKGLGTYKETVSRSGKGIAESICSVIGSTTTLDRSSQGGADYDQFRNTSETQWMRFWRLLLELDKQRGEALSLVFDQYDGMVWVTCADLLAAVRQCSDLERLYHNLQSPEKKNEDVAALISAGLTFVETFSDSMHQLCKAALRAELYENSALSDRERMQLFLDRAGFWVTDEDWAQVLDIVGQNYQMVTSRLYEDLFDLITATSEANSQELREPFTIFGKKVVVRAVQETVELHWQILFSQLILLVNMVDSESEEARPLHTRFDVGSVYRRLIDALRRLEHLRWMTKTELSVSPSKSRSGSSSPTLSKRGQDESYTRTALEELAGHLFGLPESNNMPLLSSITDLVLDLCAPTSTTVLNTWLIQCWLLKEGRPDLALELMPFAEQDPFSTYVQGRVFLALRDYDTAAQHFRKAAIGLSIPLKHVDRHSAGLLDDTEWNLLNSGLPNYYAHIVNLYDKQKAYSYVMEFSRLALQFAQTSNQDSASIKTEMLSRLFTASTATSHFEEAHSALLAMDDEALQKSYLRKLLERMCESGQSSELISLPFSGLQNKVDEILAEKCRATRDVLNGVPYHQILYAWRISHNDYRGAAAILLDRLEKLRRSGEGDKLGAEDGENGAGNDALDTQVTRQYLIVINALSCVAPQEAYILEDVPPPVPGKGTNDEEYSQTGSKRKLGKLNATSGEEDLDSRIEELARLLDSESAGDKKARPSSSSEEDQQLLERMQKFSTAVRQEQGQQTPRRLLRLEDLRKQYQQELDRIVAIQNNQFALTADGEDEDEDMMDIA
modifications: Alexa Fluor 546 label in the GUV assay
Take B2: the binding result in assay [2] was “no binding”.

B3: CtNup120βM, β-propeller domain of CtNup120 with an α-helical extension (domain or fragment, UniProt G0S0E7 1-832)
chain: MAFDNFEILYKETRLNLEPASPSSVVQLRVAPTNAYGRSSLSSSSSSRPASATADDEKGYRTKNLATASSIYYRKHHSSPRGFLWRVLDNNTVLSIRVADVCRQEKVADAPLILNLRFASPLRPACVGFADHEDHDALFVYAIDQSNQLWSIILRPDHFRKRSATEGGLGDASRVYSPPGFGFKHPHRLAVVSPDQLIVTMHDGGILKFDRNKNHESHGSPWRESIYNVAGWGQSLRGLVPFQRNPTVRYEKINMELTAAASTAVTTMGHAETAFLFTICLDHRMRVWDVRTGQILYTGDILNNTKRDPQEVGKWTVDPSQNNLIRILDNGRGQCLVVTYSPVGAGEFKFWKVKANDQGSIHVTDCFPDARLMSPNPTSLDVWTLADFAIAQQPDGPELWALWKNNTSYRVNRLQIIPRNATAPFADGWKAVCVESPGPTPRASGSWNPTDSTEKWLDLIFSPGRFSKSTLETALAMYEKGLGTYKETVSRSGKGIAESICSVIGSTTTLDRSSQGGADYDQFRNTSETQWMRFWRLLLELDKQRGEALSLVFDQYDGMVWVTCADLLAAVRQCSDLERLYHNLQSPEKKNEDVAALISAGLTFVETFSDSMHQLCKAALRAELYENSALSDRERMQLFLDRAGFWVTDEDWAQVLDIVGQNYQMVTSRLYEDLFDLITATSEANSQELREPFTIFGKKVVVRAVQETVELHWQILFSQLILLVNMVDSESEEARPLHTRFDVGSVYRRLIDALRRLEHLRWMTKTELSVSPSKSRSGSSSPTLSKRGQDESYTRTALEELAGHLFGLPESNNMPLLSSITDLVLDLCAPTS
modifications: Alexa Fluor 546 label in the GUV assay
B3: the binding result in assay [3] is “binds”.

For the origin of these results see doi:10.1101/2022.07.31.501833.
